Some results were stated once for a whole list of compounds, not compound by compound.
Legend:
Format in all cases: in vivo
[1] = system: Tobacco Budworm (Heliothis virescens); experiment: Tobacco budworm I (B.7a) cotton plant spray test; conditions: 2500 ppm; 4 days after treatment; larvae on sprayed cotton plants (B.7a)
Description: B.7a Tobacco Budworm (Heliothis virescens) I
(§1) The active compounds were formulated in cyclohexanone as a 10,000 ppm solution supplied in tubes. The tubes were inserted into an automated electrostatic sprayer equipped with an atomizing nozzle and they served as stock solutions for which lower dilutions were made in 50% acetone:50% water (v/v). A nonionic surfactant (Kinetic®) was included in the solution at a volume of 0.01% (v/v).
Cotton plants were grown 2 plants to a pot and selected for treatment at the cotyledon stage. Test solutions were sprayed onto the foliage by an automated electrostatic plant sprayer equipped with an atomizing spray nozzle. The plants were dried in the sprayer fume hood and then removed from the sprayer. Each pot was placed into perforated plastic bags with a zip closure. About 10 to 11 budworm larvae were placed into the bag and the bags zipped closed. Test plants were maintained in a growth room at about 25° C. and about 20-40% relative humidity for 4 days, avoiding direct exposure to fluorescent light (24 hour photoperiod) to prevent trapping of heat inside the bags. Mortality and reduced feeding were assessed 4 days after treatment, compared to untreated control plants.

[2] = system: Boll Weevil (Anthonomus grandis); experiment: Boll weevil insect diet microtiter test; conditions: 2500 ppm; 5 days; eggs on sprayed insect diet
Description: B.8 Boll Weevil (Anthonomus grandis)
For evaluating control of boll weevil (Anthonomus grandis) the test unit consisted of 24-well-microtiter plates containing an insect diet and 20-30 A. grandis eggs.
The compounds were formulated using a solution containing 75% v/v water and 25% v/v DMSO. Different concentrations of formulated compounds were sprayed onto the insect diet at 20 μl, using a custom built micro atomizer, at two replications.
After application, microtiter plates were incubated at about 23±1° C. and about 50±5% relative humidity for 5 days. Egg and larval mortality was then visually assessed.

[3] = system: Diamond Back Moth (Plutella xylostella); experiment: Diamond back moth cabbage leaf dip test; conditions: 300 ppm; 72 hours after treatment; 3rd instar larvae on dipped cabbage leaves
Description: B.2 Diamond Back Moth (Plutella xylostella)
The active compound is dissolved at the desired concentration in a mixture of 1:1 (vol:vol) distilled water:aceteone. Surfactant (Alkamuls® EL 620) is added at a rate of 0.1% (vol/vol).The test solution is prepared at the day of use.
Leaves of cabbage were dipped in test solution and air-dried. Treated leaves were placed in petri dish eslined with moist filter paper and inoculated with ten 3rd instar larvae. Mortality was recorded 72 hours after treatment. Feeding damages were also recorded using a scale of 0-100%.

[4] = system: Colorado Potato Beetle (Leptinotarsa decemlineata); experiment: Colorado potato beetle eggplant foliage spray test; conditions: 10 ppm; 4 days after treatment; larvae on sprayed eggplant foliage
Description: B.9 Colorado Potato Beetle (Leptinotarsa decemlineata)
as §1
Eggplants were grown 2 plants to a pot and were selected for treatment at the 1st true leaf stage. Test solutions were sprayed onto the foliage by an automated electrostatic plant sprayer equipped with an atomizing spray nozzle. The plants were dried in the sprayer fume hood and then removed from the sprayer. The treated foliage was then cut and removed from the pot and placed in a Petri dish lined with moistened filter pa-per. Five beetle larvae were introduced into each Petri dish and the dish was covered by a Petri dish lid. Petri dishes were maintained in a growth room at about 25° C. and about 20-40% relative humidity for 4 days, avoiding direct exposure to fluorescent light (24 hour photoperiod) to prevent trapping of heat inside the dishes. Mortality and reduced feeding were assessed 4 days after treatment, compared to untreated control plants.

[5] = system: Silverleaf Whitefly (Bemisia argentifolii); experiment: Silverleaf whitefly cotton plant spray test; conditions: 300 ppm; 3 days after treatment; whitefly adults on sprayed cotton plants
[6] = system: Orchid Thrips (Dichromothrips corbetti); experiment: Orchid thrips floral-immersion test; conditions: 300 ppm; 72 hours after treatment; adult thrips on dipped orchid flowers
Description: B.3 Orchid Thrips (Dichromothrips corbetti)
Dichromothrips corbetti adults used for bioassay were obtained from a colony maintained continuously under laboratory conditions. For testing purposes, the test compound is diluted in a 1:1 mixture of acetone:water (vol:vol), plus 0.01% vol/vol Alkamuls® EL 620 surfactant.
Thrips potency of each compound was evaluated by using a floral-immersion technique. Plastic petri dishes were used as test arenas. All petals of individual, intact orchid flowers were dipped into treatment solution and allowed to dry. Treated flowers were placed into individual petri dishes along with about 20 adult thrips. The petri dishes were then covered with lids. All test arenas were held under continuous light and a temperature of about 28° C. for duration of the assay. After 3 days, the numbers of live thrips were counted on each flower, and along inner walls of each petri dish. The percent mortality was recorded 72 hours after treatment.

[7] = system: Cowpea Aphid (Aphis craccivora); experiment: Cowpea aphid spray test on potted cowpea plants; conditions: 300 ppm; assessed after 72 hours; sprayed cowpea plants
Description: B.1 Cowpea Aphid (Aphis craccivora)
The active compound is dissolved at the desired concentration in a mixture of 1:1 (vol:vol) distilled water:acetone. Surfactant (Alkamuls® EL 620) is added at a rate of 0.1% (vol/vol). The test solution is prepared at the day of use.
Potted cowpea plants were colonized with approximately 50-100 aphids of various stages by manually transferring a leaf tissue cut from infested plant 24 hours before application. Plants were sprayed after the pest population has been recorded. Treated plants are maintained on light carts at about 28° C. Percent mortality was assessed after 72 hours

[8] = system: Vetch Aphid (Megoura viciae); experiment: Vetch aphid broad bean leaf disk microtiter test; conditions: 2500 ppm; 5 days; adult aphids on sprayed broad bean leaf disks
Description: B.6 Vetch Aphid (Megoura viciae)
For evaluating control of vetch aphid (Megoura viciae) through contact or systemic means the test unit consisted of 24-well-microtiter plates containing broad bean leaf disks.
The compounds were formulated using a solution containing 75% v/v water and 25% v/v DMSO. Different concentrations of formulated compounds were sprayed onto the leaf disks at 2.5 μl, using a custom built micro atomizer, at two replications.
After application, the leaf disks were air-dried and 5-8 adult aphids placed on the leaf disks inside the microtiter plate wells. The aphids were then allowed to suck on the treated leaf disks and incubated at about 23±1° C. and about 50±5% relative humidity for 5 days. Aphid mortality and fecundity was then visually assessed.

[9] = system: Southern Armyworm (Spodoptera eridania); experiment: Southern armyworm lima bean foliar spray test; conditions: 1 ppm; 4 days after treatment; larvae on sprayed lima bean plants
Description: B.5 Southern Armyworm (Spodoptera eridania)
as §1
Lima bean plants (variety Sieva) were grown 2 plants to a pot and selected for treatment at the 1st true leaf stage. Test solutions were sprayed onto the foliage by an automated electrostatic plant sprayer equipped with an atomizing spray nozzle. The plants were dried in the sprayer fume hood and then removed from the sprayer. Each pot was placed into perforated plastic bags with a zip closure. About 10 to 11 armyworm larvae were placed into the bag and the bags zipped closed. Test plants were maintained in a growth room at about 25° C. and about 20-40% relative humidity for 4 days, avoiding direct exposure to fluorescent light (24 hour photoperiod) to prevent trapping of heat inside the bags. Mortality and reduced feeding were assessed 4 days after treatment, compared to untreated control plants.

Cc1cc(C#N)cc(C(=O)N=S(CC2CCCC2)CC2CCCC2)c1NC(=O)c1cc(C(F)(F)F)nn1-c1ncccc1Cl [Compound 19]
at least 75%: mortality in comparison with untreated controls [1] | mortality (egg and larval) in comparison with untreated controls [2] | mortality in comparison with untreated controls [3] | mortality in comparison with untreated controls [4]

CCS(CCC1CC1)=NC(=O)c1cc(C#N)cc(C)c1NC(=O)c1cc(C(F)(F)F)nn1-c1ncccc1Cl (stereo not drawn) [Compound 16]
at least 75%: mortality in comparison with untreated controls [1] | mortality in comparison with untreated controls [5] | mortality (egg and larval) in comparison with untreated controls [2] | mortality in comparison with untreated controls [3] | mortality in comparison with untreated controls [6] | mortality in comparison with untreated controls [7] | mortality in comparison with untreated controls [8] | mortality in comparison with untreated controls [4] | mortality in comparison with untreated controls [9]

Cc1cc(C#N)cc(C(=O)N=S(CC2CCC2)CC2CCC2)c1NC(=O)c1cc(C(F)(F)F)nn1-c1ncccc1Cl [Compound 8]
at least 75%: mortality in comparison with untreated controls [1] | mortality in comparison with untreated controls [5] | mortality (egg and larval) in comparison with untreated controls [2] | mortality in comparison with untreated controls [3] | mortality in comparison with untreated controls [6] | mortality in comparison with untreated controls [8] | mortality in comparison with untreated controls [4] | mortality in comparison with untreated controls [9]

Cc1cc(Cl)cc(C(=O)N=S(CC2CCCC2)C(C)C)c1NC(=O)c1cc(C(F)(F)F)nn1-c1ncccc1Cl (stereo not drawn) [Compound 22]
at least 75%: mortality in comparison with untreated controls [1] | mortality (egg and larval) in comparison with untreated controls [2] | mortality in comparison with untreated controls [3] | mortality in comparison with untreated controls [6] | mortality in comparison with untreated controls [8] | mortality in comparison with untreated controls [4] | mortality in comparison with untreated controls [9]

CCS(=O)(CC1CCC1)=NC(=O)c1cc(Cl)cc(C)c1NC(=O)c1cc(C(F)(F)F)nn1-c1ncccc1Cl (stereo not drawn) [Compound 25]
at least 75%: mortality in comparison with untreated controls [1] | mortality in comparison with untreated controls [3]

CCS(CC1CCC1)=NC(=O)c1cc(C#N)cc(C)c1NC(=O)c1cc(C(F)(F)F)nn1-c1ncccc1Cl (stereo not drawn) [Compound 10]
at least 75%: mortality in comparison with untreated controls [1] | mortality in comparison with untreated controls [5] | mortality (egg and larval) in comparison with untreated controls [2] | mortality in comparison with untreated controls [3] | mortality in comparison with untreated controls [6] | mortality in comparison with untreated controls [8] | mortality in comparison with untreated controls [4] | mortality in comparison with untreated controls [9]

CCS(CC1CCCC1)=NC(=O)c1cc(Cl)cc(C)c1NC(=O)c1cc(C(F)(F)F)nn1-c1ncccc1Cl (stereo not drawn) [Compound 20]
at least 75%: mortality in comparison with untreated controls [1] | mortality (egg and larval) in comparison with untreated controls [2] | mortality in comparison with untreated controls [3] | mortality in comparison with untreated controls [6] | mortality in comparison with untreated controls [8] | mortality in comparison with untreated controls [4] | mortality in comparison with untreated controls [9]

Cc1cc(C#N)cc(C(=O)N=S(CC2CCC2)C(C)C)c1NC(=O)c1cc(C(F)(F)F)nn1-c1ncccc1Cl (stereo not drawn) [Compound 23]
at least 75%: mortality in comparison with untreated controls [1] | mortality (egg and larval) in comparison with untreated controls [2] | mortality in comparison with untreated controls [3] | mortality in comparison with untreated controls [6] | mortality in comparison with untreated controls [7] | mortality in comparison with untreated controls [8] | mortality in comparison with untreated controls [4] | mortality in comparison with untreated controls [9]

Cc1cc(Cl)cc(C(=O)N=S(CC2CCC2)CC2CCC2)c1NC(=O)c1cc(C(F)(F)F)nn1-c1ncccc1Cl [Compound 7]
at least 75%: mortality in comparison with untreated controls [1] | mortality in comparison with untreated controls [5] | mortality (egg and larval) in comparison with untreated controls [2] | mortality in comparison with untreated controls [3] | mortality in comparison with untreated controls [4]

Cc1cc(Cl)cc(C(=O)N=S(CC2CCCC2)CC2CCCC2)c1NC(=O)c1cc(C(F)(F)F)nn1-c1ncccc1Cl [Compound 18]
at least 75%: mortality in comparison with untreated controls [1] | mortality (egg and larval) in comparison with untreated controls [2] | mortality in comparison with untreated controls [3] | mortality in comparison with untreated controls [4]

CCS(CC1CCCC1)=NC(=O)c1cc(C#N)cc(C)c1NC(=O)c1cc(C(F)(F)F)nn1-c1ncccc1Cl (stereo not drawn) [Compound 21]
at least 75%: mortality in comparison with untreated controls [1] | mortality (egg and larval) in comparison with untreated controls [2] | mortality in comparison with untreated controls [3] | mortality in comparison with untreated controls [6] | mortality in comparison with untreated controls [7] | mortality in comparison with untreated controls [8] | mortality in comparison with untreated controls [4] | mortality in comparison with untreated controls [9]

Cc1cc(C#N)cc(C(=O)N=S(CC2CCCC2)C(C)C)c1NC(=O)c1cc(C(F)(F)F)nn1-c1ncccc1Cl (stereo not drawn) [Compound 24]
at least 75%: mortality in comparison with untreated controls [1] | mortality (egg and larval) in comparison with untreated controls [2] | mortality in comparison with untreated controls [3] | mortality in comparison with untreated controls [6] | mortality in comparison with untreated controls [7] | mortality in comparison with untreated controls [8] | mortality in comparison with untreated controls [4] | mortality in comparison with untreated controls [9]

From patent US20140309109A1, “N-Thio-anthranilamide compounds and their use as pesticides” (BASF SE, priority 2011, published 2014)
